In PMC5225595:
Results are given in words; binding and its absence hold for the method and conditions named. In cells and extracts the contact can be indirect. Some results given as binding are weak or reduced against the parent protein; the word gives no strength.

Amino acid sequences for entries named in this document (tags omitted).
UniProt P46940: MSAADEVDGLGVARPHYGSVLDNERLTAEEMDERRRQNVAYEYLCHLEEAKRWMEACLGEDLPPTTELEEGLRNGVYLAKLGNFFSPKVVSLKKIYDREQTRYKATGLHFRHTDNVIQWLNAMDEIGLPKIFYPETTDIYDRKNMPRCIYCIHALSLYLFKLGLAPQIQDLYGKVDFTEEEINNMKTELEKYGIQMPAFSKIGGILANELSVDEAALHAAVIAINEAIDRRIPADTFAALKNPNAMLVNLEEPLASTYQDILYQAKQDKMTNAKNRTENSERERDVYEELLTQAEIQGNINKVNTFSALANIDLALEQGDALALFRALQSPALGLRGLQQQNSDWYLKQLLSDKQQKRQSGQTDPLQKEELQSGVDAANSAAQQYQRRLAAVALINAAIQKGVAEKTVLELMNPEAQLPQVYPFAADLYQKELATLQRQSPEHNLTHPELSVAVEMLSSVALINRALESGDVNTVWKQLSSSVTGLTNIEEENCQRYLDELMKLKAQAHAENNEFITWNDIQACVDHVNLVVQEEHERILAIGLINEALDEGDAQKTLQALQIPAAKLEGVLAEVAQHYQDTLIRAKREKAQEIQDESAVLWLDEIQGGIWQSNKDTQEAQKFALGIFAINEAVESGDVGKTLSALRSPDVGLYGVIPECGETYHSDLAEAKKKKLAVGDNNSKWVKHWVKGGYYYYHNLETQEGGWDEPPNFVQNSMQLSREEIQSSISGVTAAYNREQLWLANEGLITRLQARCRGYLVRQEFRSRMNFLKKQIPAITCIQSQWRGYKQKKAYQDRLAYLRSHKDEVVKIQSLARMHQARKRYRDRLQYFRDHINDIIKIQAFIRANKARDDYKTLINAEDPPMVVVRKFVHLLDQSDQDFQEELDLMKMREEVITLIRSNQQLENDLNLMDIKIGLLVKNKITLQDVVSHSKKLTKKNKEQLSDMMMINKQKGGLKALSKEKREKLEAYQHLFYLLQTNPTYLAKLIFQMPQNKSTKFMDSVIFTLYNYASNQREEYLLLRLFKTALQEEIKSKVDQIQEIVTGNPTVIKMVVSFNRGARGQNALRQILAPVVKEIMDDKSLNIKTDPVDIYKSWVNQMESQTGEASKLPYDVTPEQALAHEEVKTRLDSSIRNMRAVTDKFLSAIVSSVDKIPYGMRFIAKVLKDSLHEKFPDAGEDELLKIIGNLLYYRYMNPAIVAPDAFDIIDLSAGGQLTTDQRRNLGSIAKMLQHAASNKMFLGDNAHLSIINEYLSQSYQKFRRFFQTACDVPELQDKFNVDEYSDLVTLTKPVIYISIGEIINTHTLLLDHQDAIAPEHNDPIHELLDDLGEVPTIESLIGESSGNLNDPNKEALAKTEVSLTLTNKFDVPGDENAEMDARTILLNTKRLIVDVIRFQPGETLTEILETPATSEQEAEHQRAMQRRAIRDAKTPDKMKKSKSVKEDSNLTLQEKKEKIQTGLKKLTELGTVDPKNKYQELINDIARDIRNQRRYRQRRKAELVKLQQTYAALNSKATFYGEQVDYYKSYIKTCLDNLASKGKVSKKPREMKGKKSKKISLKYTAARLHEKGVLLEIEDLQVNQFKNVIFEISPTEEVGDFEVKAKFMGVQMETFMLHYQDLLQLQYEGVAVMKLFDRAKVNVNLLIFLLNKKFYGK
UniProt Q9ULT8: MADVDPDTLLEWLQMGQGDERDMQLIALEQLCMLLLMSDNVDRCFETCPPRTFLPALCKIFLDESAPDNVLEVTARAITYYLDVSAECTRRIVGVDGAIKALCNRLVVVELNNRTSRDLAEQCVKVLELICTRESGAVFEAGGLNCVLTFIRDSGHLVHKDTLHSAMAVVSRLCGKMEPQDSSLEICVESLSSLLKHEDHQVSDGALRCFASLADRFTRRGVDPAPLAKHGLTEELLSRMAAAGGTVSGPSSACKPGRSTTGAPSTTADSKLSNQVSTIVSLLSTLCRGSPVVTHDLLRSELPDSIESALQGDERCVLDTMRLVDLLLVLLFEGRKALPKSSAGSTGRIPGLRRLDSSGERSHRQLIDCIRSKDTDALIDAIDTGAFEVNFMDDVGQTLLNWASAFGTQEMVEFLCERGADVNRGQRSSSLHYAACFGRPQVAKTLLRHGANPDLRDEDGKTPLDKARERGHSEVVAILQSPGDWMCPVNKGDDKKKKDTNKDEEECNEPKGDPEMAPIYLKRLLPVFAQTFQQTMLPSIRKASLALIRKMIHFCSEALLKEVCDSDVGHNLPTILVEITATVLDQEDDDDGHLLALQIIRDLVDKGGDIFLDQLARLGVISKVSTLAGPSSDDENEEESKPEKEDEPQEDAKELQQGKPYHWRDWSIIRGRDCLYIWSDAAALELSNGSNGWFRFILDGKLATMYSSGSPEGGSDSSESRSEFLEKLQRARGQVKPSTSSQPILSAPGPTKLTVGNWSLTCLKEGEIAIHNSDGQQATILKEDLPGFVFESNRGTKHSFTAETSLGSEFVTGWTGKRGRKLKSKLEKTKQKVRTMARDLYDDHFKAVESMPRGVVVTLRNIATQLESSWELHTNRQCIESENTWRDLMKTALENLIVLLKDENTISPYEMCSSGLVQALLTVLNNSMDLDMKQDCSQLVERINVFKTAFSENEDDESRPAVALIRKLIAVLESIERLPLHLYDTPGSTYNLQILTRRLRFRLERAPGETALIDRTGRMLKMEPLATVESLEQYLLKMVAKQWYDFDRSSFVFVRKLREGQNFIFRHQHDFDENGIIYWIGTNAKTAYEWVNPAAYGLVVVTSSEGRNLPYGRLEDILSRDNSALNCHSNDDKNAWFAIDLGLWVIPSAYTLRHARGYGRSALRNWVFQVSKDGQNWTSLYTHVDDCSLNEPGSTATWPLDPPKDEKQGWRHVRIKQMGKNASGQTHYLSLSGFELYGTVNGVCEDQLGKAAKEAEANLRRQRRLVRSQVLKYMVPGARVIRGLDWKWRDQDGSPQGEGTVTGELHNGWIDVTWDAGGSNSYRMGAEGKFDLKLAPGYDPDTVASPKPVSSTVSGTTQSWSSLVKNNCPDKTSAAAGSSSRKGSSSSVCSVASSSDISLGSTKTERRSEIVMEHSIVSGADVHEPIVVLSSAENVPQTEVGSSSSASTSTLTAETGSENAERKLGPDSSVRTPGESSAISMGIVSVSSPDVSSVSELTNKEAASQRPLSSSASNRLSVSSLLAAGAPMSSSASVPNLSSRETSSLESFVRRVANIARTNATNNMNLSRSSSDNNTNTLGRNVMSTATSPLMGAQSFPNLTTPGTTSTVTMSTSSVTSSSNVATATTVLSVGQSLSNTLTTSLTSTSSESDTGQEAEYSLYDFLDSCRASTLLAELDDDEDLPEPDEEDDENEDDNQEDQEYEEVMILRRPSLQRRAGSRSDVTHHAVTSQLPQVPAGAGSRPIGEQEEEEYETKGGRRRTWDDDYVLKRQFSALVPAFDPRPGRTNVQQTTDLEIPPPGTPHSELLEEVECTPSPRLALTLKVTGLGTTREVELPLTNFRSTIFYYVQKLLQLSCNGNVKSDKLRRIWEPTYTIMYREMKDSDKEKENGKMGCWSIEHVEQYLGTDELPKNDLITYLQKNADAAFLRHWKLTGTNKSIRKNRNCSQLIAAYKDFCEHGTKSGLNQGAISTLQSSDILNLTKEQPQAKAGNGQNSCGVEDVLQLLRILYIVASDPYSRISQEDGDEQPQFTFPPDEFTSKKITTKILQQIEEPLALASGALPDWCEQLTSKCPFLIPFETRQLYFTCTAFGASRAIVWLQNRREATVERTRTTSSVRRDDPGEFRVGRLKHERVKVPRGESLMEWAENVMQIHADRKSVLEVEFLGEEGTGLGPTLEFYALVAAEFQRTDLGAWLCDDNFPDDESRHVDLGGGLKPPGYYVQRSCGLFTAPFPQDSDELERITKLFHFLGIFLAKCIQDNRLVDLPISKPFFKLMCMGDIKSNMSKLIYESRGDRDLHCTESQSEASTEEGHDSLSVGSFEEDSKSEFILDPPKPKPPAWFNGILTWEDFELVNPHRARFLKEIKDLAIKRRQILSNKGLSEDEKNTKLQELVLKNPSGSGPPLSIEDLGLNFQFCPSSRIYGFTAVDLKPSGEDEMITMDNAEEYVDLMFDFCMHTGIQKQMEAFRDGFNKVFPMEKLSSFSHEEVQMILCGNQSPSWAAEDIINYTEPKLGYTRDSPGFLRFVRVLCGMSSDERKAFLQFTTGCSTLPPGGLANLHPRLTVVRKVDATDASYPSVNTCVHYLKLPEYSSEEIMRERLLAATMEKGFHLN

Target: GFP-IQGAP1 (UniProt P46940)
Assay: co-IP; lysate of HEK293 cells expressing GFP-IQGAP1, with or without 60 min on fibronectin-coated dishes; IP lysis buffer 20 mM Tris-HCl pH 8.0, 137 mM NaCl, 1% NP40, 2 mM EDTA; precipitated with mouse anti-GFP antibody and protein A/G agarose beads at 4 °C; HECTD1 detected by western blot

How did the binding turn out when “HECTD1 (E3 ubiquitin ligase for inhibin B receptor) (from UniProt Q9ULT8 1-2610) (enzyme)” was run?
Its binding is “binds”.
